PubChem BioAssay AID1493 (National Center for Advancing Translational Sciences (NCATS), 2009)
Only results without a clear call are listed here; the source files them as inconclusive.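 How the source made its calls: active means compound pushes the radio-tagged natural neuropeptide S off its receptor in a binding test; inconclusive means any compound that did not displace the tagged ligand; inactive means never assigned.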

By UniProt entry, the sequences of proteins in these tests, tags left out. Where a name states a change or a piece, a line headed by the entry shows the natural chain unless it says otherwise.
UniProt Q6W5P4: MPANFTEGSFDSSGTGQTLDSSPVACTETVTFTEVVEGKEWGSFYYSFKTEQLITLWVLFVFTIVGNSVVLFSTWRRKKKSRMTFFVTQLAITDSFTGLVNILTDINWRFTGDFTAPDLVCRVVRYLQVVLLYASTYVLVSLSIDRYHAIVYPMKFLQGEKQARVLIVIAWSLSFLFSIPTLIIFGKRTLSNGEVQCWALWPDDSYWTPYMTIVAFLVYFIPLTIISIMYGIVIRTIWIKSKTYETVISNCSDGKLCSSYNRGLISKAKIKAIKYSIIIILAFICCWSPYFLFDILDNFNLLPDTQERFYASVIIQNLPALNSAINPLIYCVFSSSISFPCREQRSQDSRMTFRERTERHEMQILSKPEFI

Molecular target: Neuropeptide S receptor (Homo sapiens) (UniProt Q6W5P4)
Assay: Confirmation Concentration-Response Assay for Antagonists of the Neuropeptide S Receptor: Radioligand Displacement
Settings: CHO-hNPSR cells, [125I]Y10-NPS displacement, 1.5 h
Excerpt: NIH Chemical Genomics Center [NCGC] NIH Molecular Libraries Probe Production centers Network [MLPCN] MLPCN Grant: X01-DA026210-01 Assay Submitter (PI): Heilig, Markus Alexander NCGC Assay Overview: Neuropeptide S receptor (NPSR), previously known as GPR154, is a recently de-orphanized G protein coupled receptor. Its endogenous ligand is the 20 amino acids peptide Neuropeptide S (NPS). […] NPS and its receptor are found in various tissues. Specifically they are highly expressed in brain areas that have been implicated in modulation of arousal, stress and anxiety. Central administration of NPS in mice produces an unusual profile of activity by inducing wakefulness and arousal, while at the same time suppressing anxiety. Therefore, NPSR may represent a novel drug target for the treatment of sleep and anxiety disorders. As one method of confirming the specific activity of compounds active in the primary screen (AID 1461), we developed an assay to measure the displacement of radio-labeled native ligand, NPS, from its receptor in vitro.
The assay was carried out as described (Xu et al. (2004) Neuron, 43: 487-497) with minor modification. Y10-NPS labeled with 125I was bought from NEN Perkin Elmer (Boston, MA). CHO cells stably expressing human NPSR were seeded into 24-well plates and cultured until reaching 90-95% confluency. Cells were washed with 1ml PBS once and then incubated with radioligand with or without compounds or in DMEM medium containing 0.1% bovine serum albumin at 20C for 1.5 hr. Increasing concentrations of compounds or unlabeled human NPS were used to compete with 0.15 nM [125I] Y10-NPS. Nonspecific binding was determined in the presence of 1 uM unlabeled human NPS. Cells were washed twice with cold PBS and lysed with 1 N NaOH. Bound radioactivity was counted in a liquid scintillation counter.

outcome, inconclusive:
CC1CCCCN1S(=O)(=O)c1ccc(C(=O)Nc2sccc2C(N)=O)cc1 (centres undefined)
CC1CCN(S(=O)(=O)c2ccc(C(=O)Nc3sccc3C(N)=O)cc2)CC1
O=C(/C=C/c1ccco1)NC(=S)Nc1cccc(-c2nc3ccccc3o2)c1
O=C(COC(=O)c1ccccc1C(=O)c1ccc(Cl)c([N+](=O)[O-])c1)NC1CCCCCC1
